No constants are given. Whether binding was seen depends on the method and setting. Binding seen in cells or lysates may run through a third protein. Here binding means that the protein was enriched with, or labelled near, the bait; the list need not be complete. Tags and fused reporters may be left off the sequences shown.
Target: T1, aIF2-γHis, His-tagged aIF2-γ expressed in Sulfolobus solfataricus (Sulfolobus solfataricus) (UniProt Q980A5)
T1 sequence: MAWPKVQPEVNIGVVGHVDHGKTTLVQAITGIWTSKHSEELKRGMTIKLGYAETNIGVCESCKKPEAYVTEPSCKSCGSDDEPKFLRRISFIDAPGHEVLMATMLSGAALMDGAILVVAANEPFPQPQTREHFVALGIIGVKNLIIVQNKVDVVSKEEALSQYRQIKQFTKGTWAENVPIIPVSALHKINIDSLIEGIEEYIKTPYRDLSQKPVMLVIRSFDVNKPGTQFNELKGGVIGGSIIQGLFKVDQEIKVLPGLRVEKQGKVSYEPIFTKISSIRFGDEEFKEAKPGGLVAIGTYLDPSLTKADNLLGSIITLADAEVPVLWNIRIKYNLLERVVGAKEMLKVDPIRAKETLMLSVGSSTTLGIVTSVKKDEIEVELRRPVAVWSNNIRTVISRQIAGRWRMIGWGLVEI
Assay: affinity purification with mass spectrometry; aIF2-γHis captured by Ni-affinity chromatography from extracts of Sso PH1-16(pMJ05-γHis) after prolonged stationary phase and 3 h after outgrowth; buffer A (50 mM Tris-HCl pH 8.0, 300 mM NaCl, 15 mM imidazole, 10 mM β-mercaptoethanol), elution with 250 mM imidazole; Coomassie-stained gel, Sso2509 band identified by mass spectrometry; mock purification from PH1-16(pMJ05)

Substance: Sso protein 2509 (Trf), endogenous
- binding: binds

From PMC3936769
